Measurements reported in PubChem BioAssay AID504764 (Drosophila RNAi Screening Center, 2011).

- Purpose: 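Genome-wide screen for regulators of Notch-driven gene expression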 (primary screen)
- System: Drosophila Kc167 cells
- Reagents: long dsRNA against Drosophila genes
- Time to read-out: about 5 days (4 days dsRNA, then 24 h after transfection)
- Challenge: transfection of constitutively active membrane-tethered Notch lacking the extracellular domain, read 24 h later
- Measured: 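Light from a Notch-responsive E(spl)m3 luciferase reporter under active Notch, with control-promoter and no-Notch reporter wells to normalise; raw counts from paired wells a and b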
- Scale: induced reporter light, run 1, well a and induced reporter light, run 1, well b: higher = more light from the Notch target reporter with active Notch; control promoter light, run 1, well a and control promoter light, run 1, well b: higher = more light from the viral control promoter (cell number, transfection, viability); uninduced reporter light, run 1, well a: higher = more light from the Notch target reporter without active Notch
- Active means: 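Wells with low control signal or poorly matching duplicates excluded; duplicates averaged; per source plate, z beyond ±2 for induced/control log2 ratio or beyond ±1.8 for induced/uninduced marks a hit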
- Calls: active = modifier hit (raised or lowered Notch signal); inactive = not a hit
The deposit covers about 22,000 reagents; shown is an unselected part of those that have a named target and a result. Over the whole deposit, 403 (1.9%) are marked active. 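Unnormalised raw counts per well; ratio z-scores behind the hit calls and whether each hit raises or lowers signal are not deposited.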 Entries without a mark were called inactive. A plus sign joins genes that one reagent is predicted to hit. The record does not give: the amount of reagent.

no.	Target gene	DRSC id	induced reporter light, run 1, well a	induced reporter light, run 1, well b	control promoter light, run 1, well a	control promoter light, run 1, well b	uninduced reporter light, run 1, well a
1	nur	DRSC01342	89600	84305	1.23e5	1.26e5	6360
2	Septin2	DRSC16855	1412	65935	89370	91650	5630
3	Pdp	DRSC17825	1.91e5	1.38e5	2.40e5	2.22e5	12380
4	lectin-28C	DRSC03010	1.21e5	1.53e5	80610	1.18e5	24535
5	bdl	DRSC00271	89815	95735	88955	83770	5982
6	Pld3	DRSC03167	1.67e5	2.30e5	1.75e5	2.23e5	15050
7	alien + CG17906	DRSC02641	1.30e5	1.58e5	70650	97315	18960
8	CG6006	DRSC13137	1.21e5	1.37e5	1.73e5	1.45e5	10150
9	CG6006	DRSC15946	1.70e5	2.02e5	2.49e5	2.55e5	18065
10	CG6424	DRSC05936	99380	1.03e5	1.77e5	2.10e5	6955
11	CG4733	DRSC15634	1.94e5	1.54e5	1.69e5	1.74e5	15470
12	CG9590	DRSC16506	1.12e5	2.68e5	3.09e5	4.43e5	15865
13	Nup58	DRSC16235	1.51e5	1.49e5	1.82e5	1.59e5	12300
14	CG18735	DRSC04312	67855	53820	50410	50950	2070
15	Rbp4	DRSC16818	2.43e5	2.77e5	1.95e5	1.84e5	19595

Part of the list above, set out differently:
Target gene | DRSC id | induced reporter light, run 1, well a | induced reporter light, run 1, well b | control promoter light, run 1, well a | control promoter light, run 1, well b | uninduced reporter light, run 1, well a
CG6424 | DRSC05936 | 99380 | 1.03e5 | 1.77e5 | 2.10e5 | 6955
CG4733 | DRSC15634 | 1.94e5 | 1.54e5 | 1.69e5 | 1.74e5 | 15470
CG9590 | DRSC16506 | 1.12e5 | 2.68e5 | 3.09e5 | 4.43e5 | 15865

More records:
no.	Target gene	DRSC id	induced reporter light, run 1, well a	induced reporter light, run 1, well b	control promoter light, run 1, well a	control promoter light, run 1, well b	uninduced reporter light, run 1, well a
16	CG13579	DRSC04215	2.70e5	2.25e5	1.87e5	1.84e5	17200
17	SLO2	DRSC06212	8845	7745	10385	9910	1540
18	SLO2	DRSC06214	2.30e5	1.91e5	2.02e5	2.19e5	17180
19	SLO2	DRSC06216	1.82e5	1.56e5	1.82e5	1.62e5	14270
20	SLO2	DRSC06218	2.00e5	2.02e5	2.63e5	2.32e5	19990
21	SLO2	DRSC06219	11700	13110	16742	15980	3540
22	vig	DRSC03630	1.54e5	1.68e5	1.53e5	1.78e5	14965
23	vig	DRSC03631	1.93e5	2.15e5	1.73e5	1.87e5	19320
24	CG42812 + CG42811	DRSC15367	1.30e5	1.33e5	1.83e5	1.65e5	12665
25	CG42812 + CG42811	DRSC15368	1.52e5	1.52e5	1.89e5	1.67e5	12915
26	CG18598	DRSC15356	1.96e5	1.83e5	2.53e5	2.16e5	13125
27	CG6937 + btn	DRSC16917	2.08e5	1.48e5	1.97e5	1.88e5	15950
28	Pfdn1	DRSC02325	87870	56270	82330	79645	4860
29	CG13365	DRSC17899	1.42e5	1.37e5	2.14e5	2.24e5	8995
30	clos	DRSC06240	1.81e5	1.71e5	1.74e5	1.77e5	13885
31	clos	DRSC06241	1.59e5	1.50e5	2.12e5	1.82e5	14070
32	clos	DRSC06778	1.32e5	1.81e5	2.10e5	2.27e5	13188
33	CG2750	DRSC19867	1.39e5	1.45e5	3.03e5	2.69e5	10830
34	CG13159	DRSC06283	92940	98790	1.52e5	1.30e5	9355
